From patent US11266578B2, “Composition, kit and method for coloring keratinous fibers” (Henkel AG & Co. KGaA, priority 2017, dated 2022) come the findings set out here.

A short description of the data set: Removal of coloring composition by coloring removal solutions, Example 5. On the set-up: species or system yak.
[1] abbreviates: Table 12, 0.5% TBAF in NOP, 20 minutes.
Where [2] appears, read: Table 12, 1% TBAF in NOP, 20 minutes.
Where [3] appears, read: Table 12, 2% TBAF in NOP, 20 minutes.
[4] abbreviates: Table 13, 1% TBAF in NOP, 5 minutes.
[5] abbreviates: Table 13, 2% TBAF in NOP, 5 minutes.
Where [6] appears, read: Table 12, 2% DBSA in Dodecane, 20 minutes.
Where [7] appears, read: Table 12, 4% DBSA in Dodecane, 20 minutes.
Where [8] appears, read: Table 13, 2% DBSA in Dodecane, 5 minutes.
The mark [9] stands for this setting: Table 13, 4% DBSA in Dodecane, 5 minutes.

Regarding `CCCC[N+](CCCC)(CCCC)CCCC.[F-]` [TBAF, Tetra butyl ammonium fluoride], the “removal of coloring composition, Sample Green (A)” value was “++” under setting [1]; “++” under setting [2]; “++” under setting [3]; “+” under setting [4]; “++” under setting [5]. Besides, the “removal of coloring composition, Sample Red (C)” value runs as follows: under setting [1], “++”; under setting [2], “++”; under setting [3], “++”; under setting [4], “++”; under setting [5], “++”. The “removal of coloring composition, Sample Silver (J)” value reads like this: under setting [1], “++”; under setting [2], “++”; under setting [3], “++”; under setting [4], “++”; under setting [5], “++”.

Take `CCCCCCCCCCCCc1ccc(S(=O)(=O)O)cc1` [DBSA, 4-Dodecyl benzene sulfonic acid]: the “removal of coloring composition, Sample Green (A)” value was “+” under setting [6], “++” under setting [7], “+” under setting [8] and “++” under setting [9]. For the same molecule, the “removal of coloring composition, Sample Red (C)” value is recorded as “++” under setting [6], “++” under setting [7], “+” under setting [8] and “++” under setting [9]. The “removal of coloring composition, Sample Silver (J)” value is, setting by setting: under setting [6], “+”; under setting [7], “++”; under setting [8], “++”; under setting [9], “++”.
